Consider one substance from patent publication US20230270859A1, “COMPOSITIONS AND METHODS FOR TREATING LUPUS” (MONASH UNIVERSITY, priority 2020, published 2023).

Sequences of proteins named here, by UniProt entry; tags and fusion partners are left off. A change or cut given only in a name is not applied to a line headed by its entry.
UniProt P62318: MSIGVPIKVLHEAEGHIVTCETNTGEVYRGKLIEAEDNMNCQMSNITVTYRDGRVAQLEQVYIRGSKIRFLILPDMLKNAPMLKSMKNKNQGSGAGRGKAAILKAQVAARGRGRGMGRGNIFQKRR

These are yes or no findings as the source states them, for the method shown. Some results given as binding are weak or reduced against the parent protein; the word gives no strength.

The target in this assay is HLA-DR15 complex (HLA-DRA1*01:01 + HLA-DRB1*15:01) (human). Description: ProImmune REVEAL MHC class II-peptide binding assay.

“SmD3:43-57 peptide (from UniProt P62318 43-57)”: the binding result is “binds”.
